Data from PMC8440642.
These are yes or no findings as the source states them, for the method shown. Binding seen in cells or lysates may run through a third protein. Binding calls can cover weak binding; strength is not graded here.

The chains behind the UniProt entries cited, without tags or fusion partners. Where a name states a change or a piece, a line headed by the entry shows the natural chain unless it says otherwise.
UniProt P67775: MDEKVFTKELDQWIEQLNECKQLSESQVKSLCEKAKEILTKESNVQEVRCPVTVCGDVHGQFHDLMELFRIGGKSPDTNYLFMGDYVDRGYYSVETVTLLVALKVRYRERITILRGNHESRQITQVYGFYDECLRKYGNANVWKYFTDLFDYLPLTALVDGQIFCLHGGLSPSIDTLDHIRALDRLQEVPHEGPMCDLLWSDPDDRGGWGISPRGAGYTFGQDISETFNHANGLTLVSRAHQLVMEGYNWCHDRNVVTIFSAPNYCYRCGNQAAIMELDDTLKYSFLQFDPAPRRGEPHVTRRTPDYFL
UniProt P46937: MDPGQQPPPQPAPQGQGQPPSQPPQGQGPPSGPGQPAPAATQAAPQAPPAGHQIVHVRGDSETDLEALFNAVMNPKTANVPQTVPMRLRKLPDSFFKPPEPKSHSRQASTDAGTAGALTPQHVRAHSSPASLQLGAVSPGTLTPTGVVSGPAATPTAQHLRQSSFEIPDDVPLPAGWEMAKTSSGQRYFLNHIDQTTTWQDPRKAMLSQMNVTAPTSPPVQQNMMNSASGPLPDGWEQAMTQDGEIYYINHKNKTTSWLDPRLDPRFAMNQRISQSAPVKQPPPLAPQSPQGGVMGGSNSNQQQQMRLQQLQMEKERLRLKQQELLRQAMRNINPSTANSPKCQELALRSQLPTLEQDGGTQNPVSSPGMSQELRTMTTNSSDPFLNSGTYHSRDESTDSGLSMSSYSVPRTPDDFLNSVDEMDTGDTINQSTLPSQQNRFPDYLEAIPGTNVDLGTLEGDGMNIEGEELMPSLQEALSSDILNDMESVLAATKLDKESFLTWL
UniProt Q9BUL8: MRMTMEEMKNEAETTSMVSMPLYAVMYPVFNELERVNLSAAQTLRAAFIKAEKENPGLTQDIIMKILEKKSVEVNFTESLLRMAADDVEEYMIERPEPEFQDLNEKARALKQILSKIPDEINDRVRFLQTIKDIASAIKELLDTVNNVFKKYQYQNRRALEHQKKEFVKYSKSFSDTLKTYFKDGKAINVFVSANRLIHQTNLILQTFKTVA

Experiments:
[1] = target: Protein phosphatase type 2A catalytic subunit (human (endogenous in Hep3B and HepG2)) (UniProt P67775); assay: co-IP; Pierce Co-IP kit; lysates of Hep3B^shPDCD10, HepG2^PDCD10 and their control cells (PDCD10 knock-down or overexpression), 10 ug IP antibody or control IgG at 4 °C overnight, western blot
[2] = target: Protein phosphatase type 2A catalytic subunit (human (endogenous in Hep3B and HepG2)) (UniProt P67775); assay: co-IP; Pierce Co-IP kit; about 1000 ug lysate protein of Hep3B or HepG2^PDCD10 cells with 10 ug IP antibody or control IgG at 4 °C overnight, magnetic beads 1 h at room temperature, western blot

Substance | binding [1] | binding [2]
YAP (from UniProt P46937 1-504) | binds | –
Programmed cell death 10, overexpressed from full-length cDNA in HepG2 cells (from UniProt Q9BUL8 1-212) | – | binds
Programmed cell death 10 (from UniProt Q9BUL8 1-212) | – | binds
